No constants are given. Whether binding was seen depends on the method and setting. A result given as binding can be weak or reduced; the word gives no strength.

Chains of the proteins cited; added tags and fusions are not shown. Lines headed by an entry give the natural chain unless they say otherwise; changes in a name come on top. Residues count along the entry.
UniProt Q9NNX6: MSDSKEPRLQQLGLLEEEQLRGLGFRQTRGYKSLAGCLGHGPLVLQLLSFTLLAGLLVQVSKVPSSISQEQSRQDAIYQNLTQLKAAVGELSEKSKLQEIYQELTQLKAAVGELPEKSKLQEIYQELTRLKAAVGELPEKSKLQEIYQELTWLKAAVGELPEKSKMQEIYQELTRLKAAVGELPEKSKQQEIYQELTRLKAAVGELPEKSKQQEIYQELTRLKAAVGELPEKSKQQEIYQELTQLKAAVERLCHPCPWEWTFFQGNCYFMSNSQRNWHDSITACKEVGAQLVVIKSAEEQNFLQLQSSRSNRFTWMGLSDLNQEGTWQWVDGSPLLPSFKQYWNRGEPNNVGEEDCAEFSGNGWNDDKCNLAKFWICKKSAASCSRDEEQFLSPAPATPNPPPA
UniProt P02769, residues 25-607: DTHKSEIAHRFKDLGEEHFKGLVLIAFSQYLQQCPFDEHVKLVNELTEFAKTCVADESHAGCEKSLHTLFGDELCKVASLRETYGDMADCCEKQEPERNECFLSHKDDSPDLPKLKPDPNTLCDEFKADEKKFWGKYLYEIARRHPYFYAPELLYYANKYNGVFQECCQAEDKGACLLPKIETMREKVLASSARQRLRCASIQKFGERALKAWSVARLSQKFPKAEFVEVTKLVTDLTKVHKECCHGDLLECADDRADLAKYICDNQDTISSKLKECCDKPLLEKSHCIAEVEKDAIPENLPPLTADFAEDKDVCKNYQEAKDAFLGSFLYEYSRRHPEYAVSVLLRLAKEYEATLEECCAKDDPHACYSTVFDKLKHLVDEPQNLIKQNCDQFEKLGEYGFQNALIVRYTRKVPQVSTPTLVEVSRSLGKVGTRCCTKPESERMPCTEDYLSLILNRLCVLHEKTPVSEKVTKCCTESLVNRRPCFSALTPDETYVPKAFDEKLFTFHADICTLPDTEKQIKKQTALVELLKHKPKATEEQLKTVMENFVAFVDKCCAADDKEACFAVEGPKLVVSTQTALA

In paper PMC2824085 one finds binding data, which are given here for one substance.

The target in this assay is monomeric carbohydrate-recognition domain (CRD) from DC-SIGN (UniProt Q9NNX6). Briefly: radioligand binding; competition: CRD of DC-SIGN immobilised on polystyrene wells, 125I-labeled mannose-BSA as reporter ligand, competing ligand titrated; KI = concentration for 50% inhibition; both purified.

With “125I-labeled mannose-BSA (from UniProt P02769 25-607)”, the binding entry is “binds”.
